The nature of data set [1]: Solubility in water (dispersed in water). In kind it is physicochemical.
For data set [2] the following is noted: background statement; cited from earlier work.

For `COc1cc(/C=C/C(=O)CC(=O)/C=C/c2ccc(O)c(OC)c2)ccc1O` [curcumin], the water solubility result in data set [1] was “insoluble”. In data set [2], the solubility in water result is reported as “basically insoluble”.

These data come from patent publication US11642316B2, “Water-soluble curcumin mixture with high bioavailability and preparation method and application thereof” (HENAN ZHONGDA HENGYUAN BIOTECHNOLOGY STOCK CO., LTD., priority 2021, dated 2023).
